Assay results taken from publication doi:10.1101/2021.07.08.451585.
These are yes or no findings as the source states them, for the method shown. Binding seen in cells or lysates may run through a third protein. A yes stands for co-enrichment or nearness to the bait. Other partners may have been found. For some of these results: No binding means not detected with the bait. For some of these results: Sequences can lack the tags named with a protein.

Amino acid sequences for entries named in this document (tags omitted). Residues count along the entry.
UniProt P25705, residues 44-553: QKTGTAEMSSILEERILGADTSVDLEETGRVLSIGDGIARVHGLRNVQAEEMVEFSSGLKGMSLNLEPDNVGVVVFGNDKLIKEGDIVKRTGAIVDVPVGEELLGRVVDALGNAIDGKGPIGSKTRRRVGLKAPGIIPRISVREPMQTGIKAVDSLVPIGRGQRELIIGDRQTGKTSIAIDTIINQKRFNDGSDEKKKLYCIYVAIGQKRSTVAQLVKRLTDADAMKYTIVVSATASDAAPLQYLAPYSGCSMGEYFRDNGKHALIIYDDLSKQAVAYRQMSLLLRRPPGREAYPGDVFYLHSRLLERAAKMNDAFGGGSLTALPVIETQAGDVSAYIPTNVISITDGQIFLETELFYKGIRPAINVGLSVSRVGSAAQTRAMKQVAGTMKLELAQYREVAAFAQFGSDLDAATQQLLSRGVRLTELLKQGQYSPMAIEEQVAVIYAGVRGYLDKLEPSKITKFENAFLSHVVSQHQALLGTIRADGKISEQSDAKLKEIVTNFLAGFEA
UniProt P38646, residues 47-679: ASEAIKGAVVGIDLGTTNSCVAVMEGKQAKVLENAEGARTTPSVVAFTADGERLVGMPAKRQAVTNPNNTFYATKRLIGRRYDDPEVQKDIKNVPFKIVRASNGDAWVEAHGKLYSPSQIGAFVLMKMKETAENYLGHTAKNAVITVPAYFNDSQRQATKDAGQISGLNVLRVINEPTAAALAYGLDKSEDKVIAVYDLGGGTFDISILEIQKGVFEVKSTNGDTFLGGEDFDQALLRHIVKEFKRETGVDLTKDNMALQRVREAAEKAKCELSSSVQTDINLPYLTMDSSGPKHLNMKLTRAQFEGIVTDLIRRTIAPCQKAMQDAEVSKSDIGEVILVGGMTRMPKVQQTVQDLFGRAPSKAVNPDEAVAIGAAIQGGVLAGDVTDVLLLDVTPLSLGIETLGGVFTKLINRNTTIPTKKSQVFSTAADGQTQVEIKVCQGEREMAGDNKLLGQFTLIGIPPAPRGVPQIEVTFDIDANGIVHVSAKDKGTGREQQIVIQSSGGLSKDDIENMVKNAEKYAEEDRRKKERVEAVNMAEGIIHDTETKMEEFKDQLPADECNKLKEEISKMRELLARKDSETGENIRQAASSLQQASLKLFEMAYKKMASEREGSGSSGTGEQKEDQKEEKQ

What was measured:
[1] = molecular target: T1, BioID2-tagged wildtype human CLUH (BioID2-3xHA-CLUH) (human) (UniProt O75153); assay: proximity labelling
T1 sequence: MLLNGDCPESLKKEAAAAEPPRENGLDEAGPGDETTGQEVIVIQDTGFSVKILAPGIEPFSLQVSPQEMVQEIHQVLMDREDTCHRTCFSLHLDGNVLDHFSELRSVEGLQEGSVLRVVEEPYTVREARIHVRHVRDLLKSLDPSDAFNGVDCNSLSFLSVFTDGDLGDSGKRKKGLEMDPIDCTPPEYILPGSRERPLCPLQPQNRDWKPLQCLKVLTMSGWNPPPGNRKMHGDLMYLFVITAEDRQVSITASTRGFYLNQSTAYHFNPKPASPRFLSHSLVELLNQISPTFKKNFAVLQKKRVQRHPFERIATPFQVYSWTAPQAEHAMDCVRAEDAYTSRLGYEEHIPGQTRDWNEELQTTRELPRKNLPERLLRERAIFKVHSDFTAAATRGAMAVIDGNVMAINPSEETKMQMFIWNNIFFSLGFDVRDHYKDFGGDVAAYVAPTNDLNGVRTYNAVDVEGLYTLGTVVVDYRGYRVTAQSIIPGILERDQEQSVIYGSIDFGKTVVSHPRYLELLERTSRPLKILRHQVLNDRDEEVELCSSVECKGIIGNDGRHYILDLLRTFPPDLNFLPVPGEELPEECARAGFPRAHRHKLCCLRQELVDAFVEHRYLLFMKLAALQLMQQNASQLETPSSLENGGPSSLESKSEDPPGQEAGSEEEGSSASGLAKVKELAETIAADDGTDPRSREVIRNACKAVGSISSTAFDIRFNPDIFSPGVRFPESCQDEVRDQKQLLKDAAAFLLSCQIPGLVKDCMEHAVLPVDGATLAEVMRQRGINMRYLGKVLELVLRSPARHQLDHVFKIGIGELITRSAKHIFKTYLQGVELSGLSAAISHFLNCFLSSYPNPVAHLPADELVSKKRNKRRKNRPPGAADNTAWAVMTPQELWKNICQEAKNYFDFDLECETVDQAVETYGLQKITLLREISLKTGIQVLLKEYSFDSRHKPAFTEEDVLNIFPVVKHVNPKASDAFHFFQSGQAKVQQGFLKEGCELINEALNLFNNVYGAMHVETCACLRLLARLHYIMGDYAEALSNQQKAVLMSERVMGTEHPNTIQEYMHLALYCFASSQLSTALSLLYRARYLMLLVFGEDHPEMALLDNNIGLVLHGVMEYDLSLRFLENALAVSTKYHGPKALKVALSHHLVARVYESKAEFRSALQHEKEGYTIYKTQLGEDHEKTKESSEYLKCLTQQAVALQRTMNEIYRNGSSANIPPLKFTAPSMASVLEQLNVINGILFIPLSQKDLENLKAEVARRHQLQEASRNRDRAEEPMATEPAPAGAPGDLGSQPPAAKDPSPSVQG

[2] = molecular target: T2, CLUH lacking TPR domain (BioID2-3xHA-CLUHΔTPR) (human) (UniProt O75153); assay: proximity labelling
T2 sequence: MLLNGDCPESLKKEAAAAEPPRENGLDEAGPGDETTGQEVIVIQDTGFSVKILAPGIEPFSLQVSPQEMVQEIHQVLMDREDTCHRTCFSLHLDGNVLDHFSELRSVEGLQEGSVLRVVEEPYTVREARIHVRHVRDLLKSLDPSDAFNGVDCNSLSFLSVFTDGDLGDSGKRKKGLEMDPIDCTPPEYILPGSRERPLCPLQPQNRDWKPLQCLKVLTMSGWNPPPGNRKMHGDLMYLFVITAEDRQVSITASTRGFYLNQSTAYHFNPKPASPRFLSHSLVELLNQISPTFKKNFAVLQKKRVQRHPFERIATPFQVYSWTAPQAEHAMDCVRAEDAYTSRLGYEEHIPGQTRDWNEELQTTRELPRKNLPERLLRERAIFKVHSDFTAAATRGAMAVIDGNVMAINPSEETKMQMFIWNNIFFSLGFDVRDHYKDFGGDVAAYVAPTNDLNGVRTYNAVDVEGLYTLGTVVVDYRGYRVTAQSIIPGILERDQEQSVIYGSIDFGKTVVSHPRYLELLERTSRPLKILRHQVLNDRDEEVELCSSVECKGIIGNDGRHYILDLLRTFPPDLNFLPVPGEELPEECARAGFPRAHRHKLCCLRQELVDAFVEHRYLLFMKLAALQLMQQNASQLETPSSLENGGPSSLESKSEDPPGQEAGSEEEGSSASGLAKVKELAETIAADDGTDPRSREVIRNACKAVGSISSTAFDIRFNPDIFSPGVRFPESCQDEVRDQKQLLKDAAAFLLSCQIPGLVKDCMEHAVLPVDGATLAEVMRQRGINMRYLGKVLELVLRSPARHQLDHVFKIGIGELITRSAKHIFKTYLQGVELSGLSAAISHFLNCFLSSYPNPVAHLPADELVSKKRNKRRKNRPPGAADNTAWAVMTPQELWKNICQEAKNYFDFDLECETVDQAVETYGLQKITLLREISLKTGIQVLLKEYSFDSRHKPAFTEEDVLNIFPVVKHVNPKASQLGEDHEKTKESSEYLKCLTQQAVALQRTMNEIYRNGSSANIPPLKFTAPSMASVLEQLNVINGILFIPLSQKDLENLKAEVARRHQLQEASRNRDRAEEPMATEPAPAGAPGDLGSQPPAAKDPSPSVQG

Row | Substance | binding [1] | binding [2]
1 | ATP5A, endogenous in HCT116 cells (from UniProt P25705 44-553) | binds | no binding
2 | HSPA9, endogenous in HCT116 cells (from UniProt P38646 47-679) | binds | no binding
